Patent publication US20100297119A1
Results are given in words; binding and its absence hold for the method and conditions named. Some binding calls cover weakened binding; strength is not graded here.

Target: sTNALP-FcD10 (human)
Assay: Protein A affinity chromatography of culture supernatant

binding: binds
Substance: Protein A (Protein A-Sepharose) (from UniProt P38507 37-327)
